The target in the assay is pooled human transferrin (Sigma), biotinylated (human) (UniProt P02787). The experiment in a line: SPR Biacore A-100, purified peptide at several concentrations; purified (HPLC) peptide, re-screened at several concentrations.

Sequences of proteins named here, by UniProt entry; tags and fusion partners are left off. Residues count along the entry.
UniProt P02787, residues 20-698: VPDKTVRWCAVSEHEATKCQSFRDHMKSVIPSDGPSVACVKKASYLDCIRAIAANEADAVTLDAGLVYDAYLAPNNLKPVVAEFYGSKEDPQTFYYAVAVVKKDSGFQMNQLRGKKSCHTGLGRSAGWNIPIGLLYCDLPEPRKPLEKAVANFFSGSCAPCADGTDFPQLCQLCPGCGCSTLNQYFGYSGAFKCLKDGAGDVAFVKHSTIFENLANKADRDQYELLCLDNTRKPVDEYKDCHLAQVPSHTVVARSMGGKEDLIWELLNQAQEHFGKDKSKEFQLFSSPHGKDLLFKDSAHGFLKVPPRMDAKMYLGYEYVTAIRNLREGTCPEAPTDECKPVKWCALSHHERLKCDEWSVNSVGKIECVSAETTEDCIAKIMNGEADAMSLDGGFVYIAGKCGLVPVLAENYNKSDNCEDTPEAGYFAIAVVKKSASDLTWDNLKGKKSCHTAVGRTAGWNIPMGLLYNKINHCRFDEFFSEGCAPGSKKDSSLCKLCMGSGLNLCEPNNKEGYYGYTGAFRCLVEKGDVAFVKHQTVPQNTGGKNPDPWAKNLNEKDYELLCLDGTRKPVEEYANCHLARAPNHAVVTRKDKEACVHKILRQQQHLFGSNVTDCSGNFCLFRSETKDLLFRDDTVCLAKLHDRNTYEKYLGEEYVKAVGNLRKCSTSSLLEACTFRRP

Results are given in words; binding and its absence hold for the method and conditions named.

On to NQYVPIFSQPEDPVQQEGSC [TRF102], for which the binding entry is listed as “no binding”.
